The values below come from patent US20060183700.

Protein sequences, listed by entry. Tags and fused reporters are not part of them. Residues count along the entry.
UniProt P01257, 85-116: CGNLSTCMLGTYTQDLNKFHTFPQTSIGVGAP
UniProt P10092, 82-118: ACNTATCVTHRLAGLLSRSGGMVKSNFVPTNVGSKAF
UniProt P10997, 34-70: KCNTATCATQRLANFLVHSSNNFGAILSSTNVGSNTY
UniProt P12969, 38-74: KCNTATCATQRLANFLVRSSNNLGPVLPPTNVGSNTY

Positions count from the first letter of the chain named. For some assays here: Weaker means in comparison with the reference protein, sequence or condition of that experiment. For some assays here: Where a protein sequence is shown, tags need not be part of it. For some assays here: The exact form of at least one protein or probe is not confirmed. For some assays here: No signal at the amounts used counts as a negative.

Data set [1] addresses T1, L-CGRP (natural configuration, species not stated) (UniProt P01256).
T1 sequence (looked up, limits assumed): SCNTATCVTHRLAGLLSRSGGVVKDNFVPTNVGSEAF
Kind of data set: inhibition of the protein. The note with it: L-RNA, 2'-F pyrimidines, GTPgammaS assay, inhibits ligand binding to CRLR/RAMP1, synthetic protein, protein details: synthetic peptide, mirror-image nucleic acid, dose not given here.

For data set [2], the target named is T2, alpha-CGRP (L) (Homo sapiens) (UniProt P06881).
T2 sequence (looked up, limits assumed): T1 sequence (looked up, limits assumed) with S1A, N3D, D25N, E35K
As to the kind of experiment: activity in cells. Conditions: L-RNA, synthetic protein, protein details: synthetic peptide, Bachem, mirror-image nucleic acid; for functional effect of the aptamer: dose not given here.

In data set [3] the target is T3, Calcitonin (Homo sapiens) (UniProt P01258).
T3 sequence (looked up, limits assumed): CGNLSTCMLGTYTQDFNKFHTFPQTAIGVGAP
Kind of data set: competition with a labelled probe. The note with it: L-RNA; no cross-reactivity in alpha-CGRP competition cAMP assay; purified recombinant protein; mirror-image nucleic acid; variant of NOX-504 (STAR-R02-15xx-F12) spiegelmer.

The target of data set [4] is T4, Calcitonin (Rattus norvegicus) (UniProt P01257).
T4 sequence (looked up, limits assumed): T3 sequence (looked up, limits assumed) with F16L, A26S
As to the kind of experiment: competition with a labelled probe. The note with it: L-RNA; no cross-reactivity in alpha-CGRP competition cAMP assay; purified recombinant protein; mirror-image nucleic acid; variant of NOX-504 (STAR-R02-15xx-F12) spiegelmer.

Data set [5] has as its target T5, alpha-CGRP (L) (Rattus norvegicus) (UniProt P01256).
T5 sequence (looked up, limits assumed): T1 sequence (looked up, limits assumed)
As to the kind of experiment: activity in cells. Conditions: L-RNA, synthetic protein, protein details: synthetic peptide, Bachem, mirror-image nucleic acid.

Data set [6] has as its target T6, beta-CGRP (L) (Homo sapiens) (UniProt P10092).
T6 sequence (looked up, limits assumed): T1 sequence (looked up, limits assumed) with S1A, V22M, D25S, E35K
Kind of data set: activity in cells. Conditions: L-RNA; SK-N-MC cAMP, 37 C; synthetic protein; protein details: synthetic peptide; mirror-image nucleic acid; variant of NOX-504 (STAR-R02-15xx-F12) spiegelmer.

Data set [7] has as its target T7, Adrenomedullin (Homo sapiens) (UniProt P35318).
T7 sequence (looked up, limits assumed): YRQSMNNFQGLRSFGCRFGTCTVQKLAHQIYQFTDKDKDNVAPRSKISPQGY
As to the kind of experiment: activity in cells. Conditions: L-RNA; only slight inhibition; no clear cAMP reduction at 100x excess, IC50 not determinable; purified recombinant protein; mirror-image nucleic acid; variant of NOX-504 (STAR-R02-15xx-F12) spiegelmer; dose not given here.

In data set [8] the target is T8, Adrenomedullin (Rattus norvegicus) (UniProt P43145).
T8 sequence (looked up, limits assumed): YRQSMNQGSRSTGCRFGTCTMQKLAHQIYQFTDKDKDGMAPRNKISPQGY
As to the kind of experiment: activity in cells. The note with it: L-RNA; only slight inhibition; no clear cAMP reduction at 100x excess, IC50 not determinable; purified recombinant protein; mirror-image nucleic acid; variant of NOX-504 (STAR-R02-15xx-F12) spiegelmer; dose not given here.

Another data set addresses Amylin (Homo sapiens) (UniProt P10997). As to the kind of experiment: activity in cells. The note with it: L-RNA, synthetic protein, protein details: synthetic peptide, Bachem, mirror-image nucleic acid; for IC50: MCF-7, 30 nM human amylin; for Kd: MCF-7 cAMP.
Data set [9] addresses Amylin (Rattus norvegicus) (UniProt P12969). Kind of data set: activity in cells. The note with it: L-RNA, synthetic protein, protein details: synthetic peptide, Bachem, mirror-image nucleic acid; for IC50: MCF-7, 3 nM rat amylin; for Kd: MCF-7 cAMP.
In data set [10] the target is T5, alpha-CGRP (L) (Rattus norvegicus). Kind of data set: ITC. Conditions: L-RNA; activity 47%; synthetic protein; protein details: synthetic peptide, Bachem; mirror-image nucleic acid.
The target of data set [11] is T9, CGRP (biotinylated) (Rattus norvegicus) (UniProt P01256).
T9 sequence (looked up, limits assumed): T1 sequence (looked up, limits assumed)
As to the kind of experiment: SPR. The note with it: KD poorer than G12; synthetic protein; protein details: biotin, synthetic peptide, Jerini.

Where [12] appears, read: SK-N-MC cAMP, 37 C, variant of NOX-504 (STAR-R02-15xx-F12) spiegelmer.
The mark [13] stands for this setting: variant of NOX-504 (STAR-R02-15xx-F12) spiegelmer.
Where [14] appears, read: inhibits less than L097, variant of NOX-504-014 spiegelmer.
The mark [15] stands for this setting: SK-N-MC cAMP, variant of NOX-504-014 spiegelmer.
The mark [16] stands for this setting: variant of NOX-504-014 spiegelmer.
The mark [17] stands for this setting: SK-N-MC cAMP, variant of L097 (NOX-504-097) spiegelmer.

In the case of “CGCAGCCUUCACUGCAGUGACGCACGUAUGAUAGUUUCCAUUUUGGACUCCUGCG [732_045 spiegelmer]”, the “functional effect of the aptamer” value in data set [1] (variant of 732_045) is listed as “active”. The same sequence gave an IC50 in data set [2] (2'-F pyrimidines, SK-N-MC cAMP, human CGRP, variant of 732_045) of 22000 nM.
In the case of “CGCUCAGCCUUCACUGCAGUGACGCACGUAUGAUAGUUUCCAUUUUGGACUCCUGGGCG [732_096 spiegelmer]”, the “functional effect of the aptamer” value in [1] (variant of 732_096) is “active”. In data set [2] (2'-F pyrimidines, SK-N-MC cAMP, human CGRP, variant of 732_096), this sequence came in with a half-maximal inhibitory concentration (IC50) of 60000 nM.
Regarding “GGACUGAUGGCGCGGUCCUAUUACGCCGAAAGGGAGAGGGGA [NOX-504-014 spiegelmer]”, the binding result in data set [3] and in data set [4] was “no binding” in each case. Moreover, the IC50 worked out at 2800 nM in [5] (setting [12]); 1500 nM in data set [6]; 0.015 µM with Amylin (Homo sapiens) (setting [13]); 25000 nM in [2] (setting [12]); 0.019 µM in [9] (setting [13]). Besides, the results for the Ki in data set [5] (setting [12]), in data set [6] and in [2] (setting [12]) were 1400 nM, 0.00075 µM and 12500 nM, respectively. In addition, the “functional effect of the aptamer” value in [7] and in data set [8] was “less active” in each case. Also, the Kd is less than 0.001 µM with Amylin (Homo sapiens) (calculated from IC50 (15 nM), variant of NOX-504 (STAR-R02-15xx-F12) spiegelmer) and 0.0175 µM in data set [9] (calculated from IC50 (19 nM), variant of NOX-504 (STAR-R02-15xx-F12) spiegelmer).
In the case of “GGACUGAUGGCGCGGUCCUAUUACGCCGAAAGGGAGAGGGGAGACAGG [NOX-504 (STAR-R02-15xx-F12) spiegelmer]”, the results for the Kd in data set [10] and in [5] (derived from cAMP IC50 ca. 7) were 44000 nM and 3500 nM, respectively. The sequence further had an IC50 in data set [5] (SK-N-MC cAMP) of 7000 nM.
With “GGACUGAUGGCGCGGUCCUAUUACGCCGAAAGGGAGAGGGGGA [L103 spiegelmer]”, in [2] (setting [14]), the “functional effect of the aptamer” value is reported as “less active”.
For “GGACUGAUGGCGCGGUCCUAUUACGCCGAAAGGGAGUGGGGA [L104 spiegelmer]”, the “functional effect of the aptamer” value in [2] (setting [14]) is reported as “less active”.
On the same count and under the same terms, for “GGACUGAUGGCGCGGUCCUAUUACGCCGAAAGGGAGUGGGGGA [L105 spiegelmer]” the value was “less active”; for “GGACUGAUGGCGCGGUCCUAUUACGCCGAGAAGGGAGAGGGGA [L102 spiegelmer]”, “less active”.
Consider “GGACUGAUGGCGCGGUCCUAUUACGCCGAGAAGGGAGAGGGGGA [L107 spiegelmer]”, for which the “functional effect of the aptamer” value in data set [2] (two insertions adequate for improved binding, variant of NOX-504-014 spiegelmer) is given as “active”.
Consider “GGACUGAUGGCGCGGUCCUAUUACGCCGAGAAGGGAGUGGGGA [L106 spiegelmer]”, for which the “functional effect of the aptamer” value in data set [2] (setting [14]) is given as “less active”.
Take “GGACUGAUGGCGCGGUCCUAUUACGCCGAGAAGGGAGUGGGGGA [L097 (NOX-504-097) spiegelmer]”: the IC50 was found to be 1500 nM in data set [5] (setting [15]), 0.021 µM with Amylin (Homo sapiens) (setting [16]), 6000 nM in data set [2] (setting [15]) and 0.01 µM in data set [9] (setting [16]). The Kd is 0.006 µM with Amylin (Homo sapiens) (calculated from IC50 (21 nM), variant of NOX-504-014 spiegelmer) and 0.0085 µM in [9] (calculated from IC50 (10 nM), variant of NOX-504-014 spiegelmer).
With “GGACUGAUGGCGCGGUCCUAUUACGCCGAGAAGGGUGUGGGGGA [L109 spiegelmer]”, the IC50 in data set [2] (setting [17]) came to 9000 nM.
Same read-out and setting: for “GGACUGAUGGCGCGGUCCUAUUACGCCGAGUAGGGAGUGGGGGA [L108 spiegelmer]” the value was 5500 nM.
On to “GGACUGAUGGCGCGGUCCUAUUACGCCGAUAGGGUGAGGGGA [NOX-504-089 spiegelmer]”, for which the “functional effect of the aptamer” value in [5] (no loss of binding quality versus NOX-504-014 (FIG. 62), variant of NOX-504-014 spiegelmer, dose not given here) is reported as “active”. The results for the IC50 (with Amylin (Homo sapiens) (setting [16]); in data set [9] (setting [16])) were 0.016 µM and 0.005 µM, respectively. The Kd in the data set with Amylin (Homo sapiens) (calculated from IC50 (16 nM), variant of NOX-504-014 spiegelmer) is 0.001 µM; in data set [9] (calculated from IC50 (5 nM), variant of NOX-504-014 spiegelmer), 0.0035 µM.
On to “GGACUGAUGGCGCGGUCCUAUUACGCCGAUAGGGUGUGGGGA [NOX-504-096 spiegelmer]”, for which the IC50 in [5] (SK-N-MC cAMP, about 5-fold poorer, variant of NOX-504-089 spiegelmer) was 10000 nM.
As to “GGAGCUCAGCCUUCACUGCCAUUGAGGAUAUGCCGCGGGUCCGCAUGGAGUGGGUGUUGGGCACCACGGUCGGAUCCAG [H03a]”, in data set [11], the binding result is “binds more weakly”.
As to “GGAGCUCAGCCUUCACUGCGGGUGGGAGGGUGGAUGGUGAAGAACGAGCGCUGACCGCGGCACCACGGUCGGAUCCAG [H08a]”, the binding result in data set [11] is “binds more weakly”.
Still for that read-out and setting: with “GGAGCUCAGCCUUCACUGCGGGUGGGAGGGUGGAUGGUGGAGAACGAGCACUGACCUCGGCACCACGGUCGGAUCCAG [H08b]” the entry was “binds more weakly”.
